Assay results: patent US20120329784A1, “COMPOUNDS AND METHODS” (priority 2010, published 2012)
Counter-ions that a name gives are not always drawn. Some of these results come from one statement about several compounds together.

These compounds were tested against T1, Full length human TNNI3K (hTNNI3K) (Homo sapiens, UniProt Q59H18) (assay: Fluorescent polarization assay of compound inhibition on hTNNI3K ATP binding (Biological Assay Method I)). Details: mean of a minimum of 2 experiments; displacement of fluorescent ligand from hTNNI3K ATP binding pocket; 60 min at rt.
T1 construct: His-MBP-TEV-Full length human TNNI3K (hTNNI3K); His (N); MBP (N); TEV cleavage site (N); made in house; host or cells: baculovirus expression system (printed 'Baculokinase system')
T1 sequence (Q59H18 1-835): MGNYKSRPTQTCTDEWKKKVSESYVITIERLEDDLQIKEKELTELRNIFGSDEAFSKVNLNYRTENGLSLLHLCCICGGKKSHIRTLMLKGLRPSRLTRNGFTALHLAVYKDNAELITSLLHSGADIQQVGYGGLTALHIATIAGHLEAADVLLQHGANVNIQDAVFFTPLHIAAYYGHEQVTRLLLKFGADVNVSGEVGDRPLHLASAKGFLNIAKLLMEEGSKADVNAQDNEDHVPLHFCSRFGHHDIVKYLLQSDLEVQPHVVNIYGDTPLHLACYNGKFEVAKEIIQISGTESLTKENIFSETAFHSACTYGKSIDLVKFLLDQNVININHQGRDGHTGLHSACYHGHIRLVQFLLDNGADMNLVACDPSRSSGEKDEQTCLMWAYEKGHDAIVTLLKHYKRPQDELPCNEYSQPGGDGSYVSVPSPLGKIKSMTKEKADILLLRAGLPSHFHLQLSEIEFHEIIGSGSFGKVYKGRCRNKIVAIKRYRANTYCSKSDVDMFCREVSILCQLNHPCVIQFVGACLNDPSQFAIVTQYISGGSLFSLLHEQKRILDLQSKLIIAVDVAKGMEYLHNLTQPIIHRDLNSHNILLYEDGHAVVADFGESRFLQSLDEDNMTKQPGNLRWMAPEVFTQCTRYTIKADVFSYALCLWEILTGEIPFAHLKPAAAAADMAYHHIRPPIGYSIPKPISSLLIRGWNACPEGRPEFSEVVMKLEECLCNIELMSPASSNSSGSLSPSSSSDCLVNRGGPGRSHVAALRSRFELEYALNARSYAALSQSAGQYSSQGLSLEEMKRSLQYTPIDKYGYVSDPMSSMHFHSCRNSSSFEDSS

pXC50, ≥ 6.0:
CNS(=O)(=O)c1cccc(Nc2cc(Nc3ccc4c(c3)S(=O)(=O)NC4)ncn2)c1 [Example 74, 3-({6-[(1,1-dioxido-2,3-dihydro-1,2-benzisothiazol-6-yl)amino]-4-pyrimidinyl}amino)-N-methylbenzenesulfonamide trifluoroacetate]
CNS(=O)(=O)c1cccc(Nc2cc(Nc3ccc4scnc4c3)ncn2)c1 [Example 99, 3-{[6-(1,3-benzothiazol-5-ylamino)-4-pyrimidinyl]amino}-N-methylbenzenesulfonamide trifluoroacetate]
CNS(=O)(=O)c1cccc(Nc2cc(Nc3cccc(CN4CCN(C)CC4)c3)ncn2)c1 [Example 226, N-methyl-3-{[6-({3-[(4-methyl-1-piperazinyl)methyl]phenyl}amino)-4-pyrimidinyl]amino}benzenesulfonamide trifluoroacetate]
CNS(=O)(=O)c1ccc(OC(F)(F)F)c(Nc2cc(Nc3ccc(Cl)cc3)ncn2)c1 [Example 257, 3-({6-[(4-chlorophenyl)amino]-4-pyrimidinyl}amino)-N-methyl-4-[(trifluoromethyl)oxy]benzenesulfonamide trifluoroacetate]
CNS(=O)(=O)c1cccc(Nc2cc(Nc3cncc(C)c3)ncn2)c1 [Example 270, N-methyl-3-({6-[(5-methyl-3-pyridinyl)amino]-4-pyrimidinyl}amino)benzenesulfonamide]
CNS(=O)(=O)c1ccc(OC(C)C(F)(F)F)c(Nc2cc(Nc3ccc(Cl)cc3)ncn2)c1 (single isomer, unassigned) [Example 377, 3-({6-[(4-chlorophenyl)amino]-4-pyrimidinyl}amino)-N-methyl-4-[(2,2,2-trifluoro-1-methylethyl)oxy]benzenesulfonamide]
CNS(=O)(=O)c1cccc(Nc2cc(Nc3cccc(OCC(=O)O)c3)ncn2)c1 [Example 350, [(3-{[6-({3-[(methylamino)sulfonyl]phenyl}amino)-pyrimidinyl]amino}phenyl)oxy]acetic acid]
CNS(=O)(=O)c1ccc(SC)c(Nc2cc(Nc3ccc(N4CCCCC4)cc3)ncn2)c1 [Example 150, N-methyl-4-methylsulfanyl-3-[6-(4-piperidin-1-yl-phenylamino)-pyrimidin-4-ylamino]-benzenesulfonamide trifluoroacetate]
CNS(=O)(=O)c1ccc(SCC(C)C)c(Nc2cc(Nc3ccc(Cl)cc3)ncn2)c1 [Example 115, 3-(6-(4-chlorophenylamino)pyrimidin-4-ylamino)-4-(isobutylthio)-N-methylbenzenesulfonamide trifluoroacetate]
CNS(=O)(=O)c1ccc(N2CCOCC2)c(Nc2cc(Nc3cccc(F)c3)ncn2)c1 [Example 28, 3-({6-[(3-fluorophenyl)amino]-4-pyrimidinyl}amino)-N-methyl-4-(4-morpholinyl)benzenesulfonamide trifluoroacetate]
CNS(=O)(=O)c1cccc(Nc2cc(Nc3cccc(OC)c3)ncn2)c1 [Example 53, N-methyl-3-[(6-{[3-(methyloxy)phenyl]amino}-4-pyrimidinyl)amino]benzenesulfonamide trifluoroacetate]
CNS(=O)(=O)c1cc(Nc2cc(Nc3ccc(Cl)cc3)ncn2)c(OC(C)C(F)(F)F)cc1F (centres unmarked) [Example 204, 5-(6-(4-chlorophenylamino)pyrimidin-4-ylamino)-2-fluoro-N-methyl-4-(1,1,1-trifluoropropan-2-yloxy)benzenesulfonamide]
CNS(=O)(=O)c1ccc(SC)c(Nc2cc(Nc3ccc(C(=O)O)cc3)ncn2)c1 [Example 110, 4-[(6-{[5-[(methylamino)sulfonyl]-2-(methylthio)phenyl]amino}-4-pyrimidinyl)amino]benzoic acid trifluoroacetate]
CNS(=O)(=O)c1ccc(S(=O)(=O)C(C)C)c(Nc2cc(Nc3ccc(Cl)cn3)ncn2)c1 [Example 313, 3-[6-(5-chloro-pyridin-2-ylamino)-pyrimidin-4-ylamino]-N-methyl-4-(propane-2-sulfonyl)-benzenesulfonamide]
CNS(=O)(=O)c1cccc(Nc2cc(Nc3ccc(C(=O)N4CCN(CCOC)CC4)cc3)ncn2)c1 [Example 357, N-methyl-3-[(6-{[4-({4-[2-(methyloxy)ethyl]-1-piperazinyl}carbonyl)phenyl]amino}-4-pyrimidinyl)amino]benzenesulfonamide]
CNS(=O)(=O)c1cccc(Nc2cc(Nc3ccc(C)cc3)ncn2)c1.Cl [Example 50, N-methyl-3-({6-[(4-methylphenyl)amino]-4-pyrimidinyl}amino)benzenesulfonamide hydrochloride]
CNS(=O)(=O)c1ccc(SC)c(Nc2cc(Nc3ccc4c(c3)OCO4)ncn2)c1 [Example 143, 3-[6-(benzo[1,3]dioxol-5-ylamino)-pyrimidin-4-ylamino]-N-methyl-4-methylsulfanyl-benzenesulfonamide trifluoroacetate]
CNS(=O)(=O)c1ccc(N2CCOCC2)c(Nc2cc(Nc3ccc(Cl)cc3)ncn2)c1 [Example 251, 3-({6-[(4-chlorophenyl)amino]-4-pyrimidinyl}amino)-N-methyl-4-(4-morpholinyl)benzenesulfonamide trifluoroacetate]
CCSc1ccc(S(=O)(=O)NC)cc1Nc1cc(Nc2ccc(Cl)cc2)ncn1 [Example 122, 3-(6-(4-chlorophenylamino)pyrimidin-4-ylamino)-4-(ethylthio)-N-methylbenzenesulfonamide trifluoroacetate]
CNS(=O)(=O)c1ccc(OCC(F)(F)F)c(Nc2cc(Nc3ccc(Cl)cn3)ncn2)c1 [Example 287, 3-({6-[(5-chloro-2-pyridinyl)amino]-4-pyrimidinyl}amino)-N-methyl-4-[(2,2,2-trifluoroethyl)oxy]benzenesulfonamide trifluoroacetate]
CNS(=O)(=O)c1ccc(N(C)C)c(Nc2cc(Nc3ccc(Cl)cc3)ncn2)c1 [Example 245, 3-({6-[(4-chlorophenyl)amino]-4-pyrimidinyl}amino)-4-(dimethylamino)-N-methylbenzenesulfonamide trifluoroacetate]
CNS(=O)(=O)c1cccc(Nc2cc(Nc3ccc(-n4cccn4)cc3)ncn2)c1 [Example 234, N-methyl-3-[(6-{[4-(1H-pyrazol-1-yl)phenyl]amino}-4-pyrimidinyl)amino]benzenesulfonamide trifluoroacetate]
CNS(=O)(=O)c1ccc2c(c1)N(c1cc(Nc3ccc(C(F)(F)F)cc3)ncn1)CC2 [Example 247, N-methyl-1-(6-{[4-(trifluoromethyl)phenyl]amino}-4-pyrimidinyl)-2,3-dihydro-1H-indole-6-sulfonamide trifluoroacetate]
CNS(=O)(=O)c1cccc(Nc2cc(Nc3cc(OC)c(OC)c(OC)c3)ncn2)c1 [Example 173, N-methyl-3-[6-(3,4,5-trimethoxy-phenylamino)-pyrimidin-4-ylamino]-benzenesulfonamide trifluoroacetate]
CNS(=O)(=O)c1cccc(Nc2cc(Nc3ccc(C(=O)NCCN(C)C)cc3)ncn2)c1 [Example 360, N-[2-(dimethylamino)ethyl]-4-{[6-({3-[(methylamino)sulfonyl]phenyl}amino)-4-pyrimidinyl]amino}benzamide]
CNS(=O)(=O)c1ccc(S(C)(=O)=O)c(Nc2cc(Nc3ccc4[nH]ncc4c3)ncn2)c1 [Example 133, 3-(6-(1H-indazol-5-ylamino)pyrimidin-4-ylamino)-N-methyl-4-(methylsulfonyl)benzenesulfonamide]
CNS(=O)(=O)c1cccc(Nc2cc(Nc3ccc(O)c(Cl)c3)ncn2)c1 [Example 176, 3-[6-(3-chloro-4-hydroxy-phenylamino)-pyrimidin-4-ylamino]-N-methyl-benzenesulfonamide trifluoroacetate]
CNS(=O)(=O)c1cccc(Nc2cc(Nc3cc(C)cc(-c4ccccc4)c3)ncn2)c1 [Example 330, N-methyl-3-({6-[(5-methyl-3-biphenylyl)amino]-4-pyrimidinyl}amino)benzenesulfonamide trifluoroacetate]
CNS(=O)(=O)c1cccc(Nc2cc(Nc3ccc(C(=O)N4CCCN(C)CC4)cc3)ncn2)c1 [Example 364, N-methyl-3-{[6-({4-[(4-methylhexahydro-1H-1,4-diazepin-1-yl)carbonyl]phenyl}amino)-4-pyrimidinyl]amino}benzenesulfonamide]
